According to the supplement of paper PMC6078165:

System: HCC1143
Assay: relative JC-1 red fluorescence (viability) vs pre-drug, coculture with fibroblast (fraction); higher = more viable cancer cells
Description: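 JC-1 labelled TNBC cells cocultured 1:1 (1,500 cells each) with CellTrace Violet stained primary or stromal fibroblasts in 384-well plates in FluoroBrite medium, treated with one of 42 anticancer drugs at 0.1, 1, 10 or 100 uM. JC-1 red fluorescence (mitochondrial integrity in cancer cells only) was read by plate reader every 8 h for 72 h. Values are normalised to each well's pre-drug value. The stock of one drug was tenfold lower, so its dose labels may be too high.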

CC(C)C[C@H](NC(=O)[C@@H](COC(C)(C)C)NC(=O)[C@H](Cc1ccc(O)cc1)NC(=O)[C@H](CO)NC(=O)[C@H](Cc1c[nH]c2ccccc12)NC(=O)[C@H](Cc1cnc[nH]1)NC(=O)[C@@H]1CCC(=O)N1)C(=O)N[C@@H](CCCNC(=N)N)C(=O)N1CCC[C@H]1C(=O)NNC(N)=O [Goserelin]
relative JC-1 red fluorescence
Conditions | 8 h | 16 h | 24 h | 32 h | 40 h | 48 h | 56 h | 64 h | 72 h
10 µM, coculture fibroblast: C12385 | 0.864 | 0.7623 | 0.7 | 0.639 | 0.582 | 0.535 | 0.497 | 0.449 | 0.419
10 µM, coculture fibroblast: H6013 | 0.7624 | 0.673 | 0.643 | 0.637 | 0.553 | 0.538 | 0.504 | 0.4886 | 0.4615
10 µM, coculture fibroblast: H6019 | 0.8 | 0.735 | 0.686 | 0.628 | 0.594 | 0.563 | 0.506 | 0.458 | 0.422
10 µM, coculture fibroblast: H6076 | 0.808 | 0.844 | 0.792 | 0.73822 | 0.6984 | 0.682 | 0.654 | 0.633 | 0.643
10 µM, coculture fibroblast: H6231 | 0.83 | 0.836 | 0.735 | 0.618 | 0.625 | 0.588 | 0.543 | 0.503 | 0.476
10 µM, coculture fibroblast: HADF | 0.725 | 0.641 | 0.607 | 0.605 | 0.505 | 0.478 | 0.443 | 0.411 | 0.4
10 µM, coculture fibroblast: HCFa | 0.795 | 0.6905 | 0.636 | 0.622 | 0.536 | 0.511 | 0.463 | 0.419 | 0.396
10 µM, coculture fibroblast: HCPF | 0.8136 | 0.845 | 0.784 | 0.637 | 0.682 | 0.633 | 0.599 | 0.563 | 0.543
10 µM, coculture fibroblast: HHSteC | 0.832 | 0.762 | 0.732 | 0.693 | 0.637 | 0.616 | 0.567 | 0.536 | 0.473
10 µM, coculture fibroblast: HMF | 0.831 | 0.867 | 0.776 | 0.667 | 0.67 | 0.639 | 0.588 | 0.549 | 0.514
10 µM, coculture fibroblast: HPFa | 0.913 | 0.81 | 0.781 | 0.681 | 0.629 | 0.594 | 0.532 | 0.478 | 0.435
10 µM, coculture fibroblast: HUF | 0.8783 | 0.782 | 0.716 | 0.638 | 0.575 | 0.533 | 0.476 | 0.433 | 0.399
10 µM, coculture fibroblast: Hs5 | 0.864 | 0.874 | 0.833 | 0.802 | 0.737 | 0.704 | 0.673 | 0.645 | 0.627
10 µM, coculture fibroblast: Hs27A | 0.691 | 0.59 | 0.546 | 0.552 | 0.421 | 0.387 | 0.346 | 0.313 | 0.306
10 µM, coculture fibroblast: Hs343T | 0.8024 | 0.836 | 0.76 | 0.659 | 0.658 | 0.614 | 0.556 | 0.529 | 0.488
10 µM, coculture fibroblast: WS1 | 0.842 | 0.745 | 0.699 | 0.63 | 0.5793 | 0.534 | 0.484 | 0.432 | 0.401
100 µM, coculture fibroblast: C12385 | 0.8468 | 0.751 | 0.697 | 0.625 | 0.56 | 0.508 | 0.461 | 0.415 | 0.386
100 µM, coculture fibroblast: H6013 | 0.775 | 0.713 | 0.665 | 0.643 | 0.568 | 0.551 | 0.516 | 0.5 | 0.455
100 µM, coculture fibroblast: H6019 | 0.8274 | 0.741 | 0.6958 | 0.6302 | 0.5822 | 0.557 | 0.5078 | 0.462 | 0.4277
100 µM, coculture fibroblast: H6076 | 0.847 | 0.8879 | 0.878 | 0.865 | 0.853 | 0.855 | 0.701 | 0.832 | 0.784
100 µM, coculture fibroblast: H6231 | 0.845 | 0.841 | 0.7938 | 0.744 | 0.722 | 0.7 | 0.667 | 0.631 | 0.606
100 µM, coculture fibroblast: HADF | 0.782 | 0.7249 | 0.693 | 0.701 | 0.627 | 0.609 | 0.587 | 0.559 | 0.543
100 µM, coculture fibroblast: HCFa | 0.795 | 0.71 | 0.6638 | 0.6485 | 0.5615 | 0.534 | 0.4861 | 0.4464 | 0.4119
100 µM, coculture fibroblast: HCPF | 0.8545 | 0.8407 | 0.806 | 0.769 | 0.75 | 0.726 | 0.708 | 0.688 | 0.687
100 µM, coculture fibroblast: HHSteC | 0.859 | 0.795 | 0.773 | 0.76 | 0.673 | 0.64 | 0.596 | 0.563 | 0.521
100 µM, coculture fibroblast: HMF | 0.8254 | 0.83 | 0.759 | 0.681 | 0.673 | 0.644 | 0.6 | 0.571 | 0.549
100 µM, coculture fibroblast: HPFa | 0.931 | 0.844 | 0.816 | 0.737 | 0.666 | 0.637 | 0.569 | 0.523 | 0.466
100 µM, coculture fibroblast: HUF | 0.8875 | 0.8188 | 0.7687 | 0.7007 | 0.6559 | 0.624 | 0.57 | 0.54 | 0.511
100 µM, coculture fibroblast: Hs5 | 0.8615 | 0.85 | 0.806 | 0.77278 | 0.6932 | 0.6619 | 0.6152 | 0.5862 | 0.578
100 µM, coculture fibroblast: Hs27A | 0.771 | 0.713 | 0.671 | 0.683 | 0.565 | 0.559 | 0.51 | 0.482 | 0.446
100 µM, coculture fibroblast: Hs343T | 0.84 | 0.857 | 0.8044 | 0.745 | 0.703 | 0.668 | 0.617 | 0.589 | 0.561
100 µM, coculture fibroblast: WS1 | 0.845 | 0.763 | 0.737 | 0.668 | 0.616 | 0.578 | 0.533 | 0.4974 | 0.4736

Values are relative to the signal before dosing, not to a vehicle control; the signal also falls without drug.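 Fibroblast labels name human fibroblasts: mostly primary ones from tissues such as uterus (C12385, HUF), lung (H6013), bone (Hs27A), adrenal (HADF) and skin (WS1), plus mammary HMF and breast cancer-associated Hs343T. The cancer cells are basal-like or mesenchymal-like triple-negative breast cancer lines. The paper calls a changed response a hit when it shifts by more than 3x the replicate standard deviation. The tissue of the other fibroblasts is not given here.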
